Each structure is given as a SMILES string. Where a name gives a salt, the structure may show the parent alone. ± gives the standard deviation of the averaged measurements. The list shows a part of the results. This data set is noisy: repeats of one test often differ as much as different tests do.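 The A. baumannii clinical isolates were selected for resistance to the partner antibiotic; the screen seeks drugs that restore its effect. Background from coloured compounds is removed by subtracting the start-of-incubation reading.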

Experimental findings from the supplement of paper PMC6658780 are described below.

The test system of the first experiment is Acinetobacter baumannii WP-487. Briefly: percent growth inhibition of drug alone vs DMSO control; higher = more growth inhibition. Particulars: antibiotic (0.125x MIC): none (0.1% DMSO); 7 µM. As to the method:
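Prestwick drugs tested at 20 uM and 7 uM with an antibiotic at 0.125x MIC (16 mg/L when MIC >128 mg/L) in cation-adjusted Mueller-Hinton broth, 384-well plates, duplicate runs on different days. Percent growth inhibition was computed from OD600 (24 h minus 0 h) relative to DMSO-only wells. Drug + 0.1% DMSO (no antibiotic) wells are also given. Only hits (max corrected inhibition > mean + 3SD) are listed. A. baumannii: NCTC-13301 was used for MEM/CIP/GEN/TGC and WP-487 for colistin. Duplicates with colistin are strongly discordant (run 2 near 100% for most drugs).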
As for `NC[C@@H]1O[C@H](O[C@H]2[C@@H](O)[C@H](O[C@@H]3[C@@H](O)[C@H](N)C[C@H](N)[C@H]3O[C@H]3O[C@H](CO)[C@@H](O)[C@H](O)[C@H]3N)O[C@@H]2CO)[C@H](N)[C@@H](O)[C@@H]1O` [Paromomycin sulfate], the “percent growth inhibition of drug alone” value was found to be 8.68 ± 0.36%.

Turning to `CCCCc1oc2ccccc2c1C(=O)c1cc(I)c(OCCN(CC)CC)c(I)c1` [Amiodarone hydrochloride], the “percent growth inhibition of drug alone” value is -4.51 ± 8.4%.

In the case of `Clc1ccc(COC(Cn2ccnc2)c2ccc(Cl)cc2Cl)cc1` (stereo not given) [Econazole nitrate], the “percent growth inhibition of drug alone” value was -6.83 ± 6.6%.

Take `CCN(CC)CCOc1ccc(C(=C(Cl)c2ccccc2)c2ccccc2)cc1` [Clomiphene citrate (Z,E)]: the “percent growth inhibition of drug alone” value is -2.96 ± 5.1%.

Turning to `C#C[C@]1(O)CC[C@H]2[C@@H]3CCC4=CCCC[C@@H]4[C@H]3CC[C@@]21C` [Lynestrenol], the “percent growth inhibition of drug alone” value is -2.7 ± 3.1%.

With `CCN(CC)Cc1cc(Nc2ccnc3cc(Cl)ccc23)ccc1O` [Amodiaquin dihydrochloride dihydrate], the “percent growth inhibition of drug alone” value stood at 3.97 ± 4.2%.

As for `CO[C@H]1C[C@H](O[C@H]2[C@H](C)[C@@H](O[C@@H]3O[C@H](C)C[C@H](N(C)C)[C@H]3OC(C)=O)[C@@H](C)C[C@@]3(CO3)C(=O)[C@H](C)[C@@H](OC(C)=O)[C@@H](C)[C@@H](C)OC(=O)[C@@H]2C)O[C@@H](C)[C@@H]1OC(C)=O` [Troleandomycin], the “percent growth inhibition of drug alone” value was found to be 2.35 ± 5%.

Regarding `CCOC(=O)C1=C(C)NC(C)=C(C(=O)OC)C1c1cccc(Cl)c1Cl` (stereo not given) [Felodipine], the “percent growth inhibition of drug alone” value is -1.61 ± 7.2%.

For `C#C[C@]1(O)CC[C@H]2[C@@H]3CCC4=Cc5oncc5C[C@]4(C)[C@H]3CC[C@@]21C` [Danazol], the “percent growth inhibition of drug alone” value is -3.94 ± 8.8%.

Take `C=C1/C(=C\C=C2/CCC[C@]3(C)[C@@H]([C@H](C)/C=C/[C@@H](O)C4CC4)CC[C@@H]23)C[C@@H](O)C[C@@H]1O` [Calcipotriene]: the “percent growth inhibition of drug alone” value is -3.83 ± 9.9%.

Take `Nc1ccc(S(=O)(=O)Nc2ccnn2-c2ccccc2)cc1` [Sulfaphenazole]: the “percent growth inhibition of drug alone” value came out at 2.46 ± 3.5%.

As to `CC[C@H]1OC(=O)C[C@@H](O)[C@H](C)[C@@H](O[C@@H]2O[C@H](C)[C@@H](O[C@H]3C[C@@](C)(O)[C@@H](O)[C@H](C)O3)[C@H](N(C)C)[C@H]2O)[C@@H](CC=O)C[C@@H](C)C(=O)/C=C/C(C)=C/[C@@H]1CO[C@@H]1O[C@H](C)[C@@H](O)[C@@H](OC)[C@H]1OC` [Tylosin], the “percent growth inhibition of drug alone” value worked out at 9.65 ± 4.2%.

For `CCN(CC)CCOC(=O)C1(C2CCCCC2)CCCCC1` [Dicyclomine hydrochloride], the “percent growth inhibition of drug alone” value is -3.61 ± 12%.

For `Clc1cc(Cl)c(OCC#CI)cc1Cl` [Haloprogin], the “percent growth inhibition of drug alone” value worked out at 5.16 ± 1.6%.

With `CCCCC(=O)O[C@H]1CC[C@H]2[C@@H]3CCc4cc(O)ccc4[C@H]3CC[C@]12C` [Estradiol Valerate], the “percent growth inhibition of drug alone” value was found to be 2.65 ± 0.78%.

For `CS(=O)(=O)c1ccc([C@@H](O)[C@@H](CF)NC(=O)C(Cl)Cl)cc1` [Florfenicol], the “percent growth inhibition of drug alone” value worked out at 9.22 ± 4.8%.

`c1ccc(-c2ccc(C(c3ccccc3)n3ccnc3)cc2)cc1` (stereo not given) [Bifonazole]: the “percent growth inhibition of drug alone” value is 1.34 ± 1.7%.

As to `OCCN1CCN(CC/C=C2/c3ccccc3Sc3ccc(Cl)cc32)CC1` [Zuclopenthixol dihydrochloride], the “percent growth inhibition of drug alone” value turned out to be 4.9 ± 2.3%.

Regarding `CN1CCC[C@@H]1CCO[C@](C)(c1ccccc1)c1ccc(Cl)cc1` [Clemastine fumarate], the “percent growth inhibition of drug alone” value turned out to be 0.518 ± 5.2%.

`CC(C)/N=c1\cc2n(-c3ccc(Cl)cc3)c3ccccc3nc-2cc1Nc1ccc(Cl)cc1` [Clofazimine]: the “percent growth inhibition of drug alone” value is 1.71 ± 5.2%.

Still in this experiment, the particulars now being: antibiotic (0.125x MIC): none (0.1% DMSO); 20 µM.
With `NC[C@@H]1O[C@H](O[C@H]2[C@@H](O)[C@H](O[C@@H]3[C@@H](O)[C@H](N)C[C@H](N)[C@H]3O[C@H]3O[C@H](CO)[C@@H](O)[C@H](O)[C@H]3N)O[C@@H]2CO)[C@H](N)[C@@H](O)[C@@H]1O` [Paromomycin sulfate], the “percent growth inhibition of drug alone” value is 18.9 ± 26%.

Take `CCCCc1oc2ccccc2c1C(=O)c1cc(I)c(OCCN(CC)CC)c(I)c1` [Amiodarone hydrochloride]: the “percent growth inhibition of drug alone” value stood at 3.55 ± 3.6%.

For `Clc1ccc(COC(Cn2ccnc2)c2ccc(Cl)cc2Cl)cc1` (stereo not given) [Econazole nitrate], the “percent growth inhibition of drug alone” value was -6.23 ± 0.51%.

On to `CCN(CC)CCOc1ccc(C(=C(Cl)c2ccccc2)c2ccccc2)cc1` [Clomiphene citrate (Z,E)], for which the “percent growth inhibition of drug alone” value is 3.72 ± 7.9%.

As for `C#C[C@]1(O)CC[C@H]2[C@@H]3CCC4=CCCC[C@@H]4[C@H]3CC[C@@]21C` [Lynestrenol], the “percent growth inhibition of drug alone” value was -0.504 ± 2.7%.

`CCN(CC)Cc1cc(Nc2ccnc3cc(Cl)ccc23)ccc1O` [Amodiaquin dihydrochloride dihydrate]: the “percent growth inhibition of drug alone” value is 13.8 ± 9.8%.

In the case of `CO[C@H]1C[C@H](O[C@H]2[C@H](C)[C@@H](O[C@@H]3O[C@H](C)C[C@H](N(C)C)[C@H]3OC(C)=O)[C@@H](C)C[C@@]3(CO3)C(=O)[C@H](C)[C@@H](OC(C)=O)[C@@H](C)[C@@H](C)OC(=O)[C@@H]2C)O[C@@H](C)[C@@H]1OC(C)=O` [Troleandomycin], the “percent growth inhibition of drug alone” value amounted to 18.8 ± 19%.

On to `CCOC(=O)C1=C(C)NC(C)=C(C(=O)OC)C1c1cccc(Cl)c1Cl` (stereo not given) [Felodipine], for which the “percent growth inhibition of drug alone” value was found to be 0.104 ± 0.12%.

Consider `C#C[C@]1(O)CC[C@H]2[C@@H]3CCC4=Cc5oncc5C[C@]4(C)[C@H]3CC[C@@]21C` [Danazol], for which the “percent growth inhibition of drug alone” value is -0.489 ± 0.91%.

For `C=C1/C(=C\C=C2/CCC[C@]3(C)[C@@H]([C@H](C)/C=C/[C@@H](O)C4CC4)CC[C@@H]23)C[C@@H](O)C[C@@H]1O` [Calcipotriene], the “percent growth inhibition of drug alone” value was -1.44 ± 1.2%.

Consider `Nc1ccc(S(=O)(=O)Nc2ccnn2-c2ccccc2)cc1` [Sulfaphenazole], for which the “percent growth inhibition of drug alone” value is 52.2 ± 59%.

Consider `CC[C@H]1OC(=O)C[C@@H](O)[C@H](C)[C@@H](O[C@@H]2O[C@H](C)[C@@H](O[C@H]3C[C@@](C)(O)[C@@H](O)[C@H](C)O3)[C@H](N(C)C)[C@H]2O)[C@@H](CC=O)C[C@@H](C)C(=O)/C=C/C(C)=C/[C@@H]1CO[C@@H]1O[C@H](C)[C@@H](O)[C@@H](OC)[C@H]1OC` [Tylosin], for which the “percent growth inhibition of drug alone” value was 2.69 ± 0.62%.

`CCN(CC)CCOC(=O)C1(C2CCCCC2)CCCCC1` [Dicyclomine hydrochloride]: the “percent growth inhibition of drug alone” value was -1.81 ± 4.5%.

Turning to `Clc1cc(Cl)c(OCC#CI)cc1Cl` [Haloprogin], the “percent growth inhibition of drug alone” value turned out to be 7.57 ± 8.6%.

For the molecule `CCCCC(=O)O[C@H]1CC[C@H]2[C@@H]3CCc4cc(O)ccc4[C@H]3CC[C@]12C` [Estradiol Valerate], the “percent growth inhibition of drug alone” value stood at 6.88 ± 2.5%.

As to `CS(=O)(=O)c1ccc([C@@H](O)[C@@H](CF)NC(=O)C(Cl)Cl)cc1` [Florfenicol], the “percent growth inhibition of drug alone” value came out at 59.4 ± 34%.

With `c1ccc(-c2ccc(C(c3ccccc3)n3ccnc3)cc2)cc1` (stereo not given) [Bifonazole], the “percent growth inhibition of drug alone” value is 12.5 ± 18%.

Consider `OCCN1CCN(CC/C=C2/c3ccccc3Sc3ccc(Cl)cc32)CC1` [Zuclopenthixol dihydrochloride], for which the “percent growth inhibition of drug alone” value came to 4.49 ± 6.6%.

With `CN1CCC[C@@H]1CCO[C@](C)(c1ccccc1)c1ccc(Cl)cc1` [Clemastine fumarate], the “percent growth inhibition of drug alone” value was -0.575 ± 0.93%.

Take `CC(C)/N=c1\cc2n(-c3ccc(Cl)cc3)c3ccccc3nc-2cc1Nc1ccc(Cl)cc1` [Clofazimine]: the “percent growth inhibition of drug alone” value is 5.57 ± 11%.
